Test results published in PMC7819943, “Rice protein-binding microarrays: a tool to detect cis-acting elements near promoter regions in rice”.
Some of the results follow.

Chains of the proteins cited; added tags and fusions are not shown.
UniProt Q0JBA9, entry or part of it: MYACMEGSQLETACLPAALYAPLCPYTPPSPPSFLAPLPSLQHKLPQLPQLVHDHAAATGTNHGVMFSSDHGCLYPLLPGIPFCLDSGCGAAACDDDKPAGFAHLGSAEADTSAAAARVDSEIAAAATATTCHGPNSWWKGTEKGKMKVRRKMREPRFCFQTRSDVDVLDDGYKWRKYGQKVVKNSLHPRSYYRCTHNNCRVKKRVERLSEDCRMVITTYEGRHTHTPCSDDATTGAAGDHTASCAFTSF

Target: OsWRKY34 (Oryza sativa, UniProt Q0JBA9 1-250)
Test: protein-binding microarray (RPBM); PBS, 2% BSA, 51.3 ng/ul salmon testes DNA, 50 uM zinc acetate, 200 nM TF, 25 C, 1 h; high values mean tight binding
Conditions: protein: recombinant; tags: N-terminal polyhistidine and DsRed monomer fusion (pET32a); label: CyDye5-dUTP incorporated in the synthesized complementary strand; 3' TTTTT single-stranded linker to array surface; dsDNA, one strand shown
In short: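 Binding signal here means per-feature fluorescence intensity in arbitrary units. The values were read on an Axon 4000B scanner after a custom Agilent array, double-stranded by primer extension with Cy5-dUTP, was incubated with 200 nM protein at 25 °C for 1 h in PBS with 2% BSA, salmon testes DNA and 50 µM zinc acetate, then washed. The proteins were transcription factors with an N-terminal polyhistidine tag and DsRed, expressed in E. coli BL21-CodonPlus and purified on Ni–NTA.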

Sequence | binding signal
TACTGGTTCTACTTGATCTTATTTATCTTTTTATTCTATTCGGAGTCACCTAGTGCAG | 10100 fluorescence intensity (a.u.)
ATTAACCACCCCTTTTCAGGTTTGACCTTTTGATGCTCGCCGGAGTCACCTAGTGCAG | 11100 fluorescence intensity (a.u.)
TTAACCATTTCTCGCTCATCACAACACCACCTCACCTCACCGGAGTCACCTAGTGCAG | 9190 fluorescence intensity (a.u.)
ATCCCCACTGCTGCTTCCGTCCGCTTCCGATTCCAAGTTTCGGAGTCACCTAGTGCAG | 13600 fluorescence intensity (a.u.)
AGTTTTACAATTTGTCTATTCTCTTTCACACCAGGATCCTCGGAGTCACCTAGTGCAG | 8600 fluorescence intensity (a.u.)
AGTGTCCATTATGGTGTTTCTTAATTGTCTTTTGCTTTTTCGGAGTCACCTAGTGCAG | 11100 fluorescence intensity (a.u.)
AACCACCACTACACATCTACTTCTGGGCCACATGGGCCAACGGAGTCACCTAGTGCAG | 8230 fluorescence intensity (a.u.)
CTTGCCAACTTGTCCCAAATTTCCTTCGGCGTTTTTTCATCGGAGTCACCTAGTGCAG | 8080 fluorescence intensity (a.u.)
TGTTTTCTGAATGCGAAATCGATCCCCGCTATTATATATTCGGAGTCACCTAGTGCAG | 8430 fluorescence intensity (a.u.)
CGTCGATGTCCTCCGCCGCGAGCGCCTTGCTCTGCACCTTCGGAGTCACCTAGTGCAG | 8110 fluorescence intensity (a.u.)
GGGTGGGCAATTCACTTTATATTCCAACACTCCCCGCCTCCGGAGTCACCTAGTGCAG | 8860 fluorescence intensity (a.u.)
CGGTTGTCACACACACTTTTCTGCCTTCAACTGTATCGCCCGGAGTCACCTAGTGCAG | 9940 fluorescence intensity (a.u.)
ACTGATGTTTATGCCGTTCATAATTGGTTGGTTGATGCATCGGAGTCACCTAGTGCAG | 9530 fluorescence intensity (a.u.)
GTCCGCACTGCCCCATGGACGGCCCTGCCTGTTTCATATTCGGAGTCACCTAGTGCAG | 9930 fluorescence intensity (a.u.)
CGTCGTACTGCCACTGCCGCCGCCGATCCGGTCCATACTCCGGAGTCACCTAGTGCAG | 9120 fluorescence intensity (a.u.)
CTCTCTCTCTGATTGTTCTCTTCTGCTTGCCTCTTCCATGCGGAGTCACCTAGTGCAG | 8340 fluorescence intensity (a.u.)
TCGTCCGCTGCAGCCGCTCGCTAGCTAGTAGCTATAGCTACGGAGTCACCTAGTGCAG | 8160 fluorescence intensity (a.u.)
GTCGGTGTAATATTTCTTTTGTTATAACAAATTTGTTTTGCGGAGTCACCTAGTGCAG | 8330 fluorescence intensity (a.u.)
CTTATTCCTTACTTAAATACTTAGGGGTTTTCATTATACTCGGAGTCACCTAGTGCAG | 8200 fluorescence intensity (a.u.)
ACGACGACGACGACGACGCAACCCCGCGGCGCGCGCCGGCCGGAGTCACCTAGTGCAG | 8430 fluorescence intensity (a.u.)
AGAGATCACTAATTATTTACGCATCAATTCGTCATTTCTTCGGAGTCACCTAGTGCAG | 9580 fluorescence intensity (a.u.)

Copied from the list.
binding signal with GTCCGCACTGCCCCATGGACGGCCCTGCCTGTTTCATATTCGGAGTCACCTAGTGCAG is entered as 9930 fluorescence intensity (a.u.)
binding signal with TTAACCATTTCTCGCTCATCACAACACCACCTCACCTCACCGGAGTCACCTAGTGCAG is entered as 9190 fluorescence intensity (a.u.)

The list goes on:

Sequence | binding signal
TTGCTTGCCGATCATCCAATGCCTTGTCGGATCTTCCTCTCGGAGTCACCTAGTGCAG | 12100 fluorescence intensity (a.u.)
CTTTGGGTTCTTGTTTGTCGCGTTGAATGTGGTTCACAACCGGAGTCACCTAGTGCAG | 10100 fluorescence intensity (a.u.)
GGGTCTATTTTTATAATTTTTTTGGCCGATAGATTATTTCCGGAGTCACCTAGTGCAG | 10800 fluorescence intensity (a.u.)
GCACGCACTCCCACACCGCACACTCGCCAGTTAGCCCTTACGGAGTCACCTAGTGCAG | 13900 fluorescence intensity (a.u.)
GTGGGAGATCATAATGCTGGCGACGTGGTGGTTCTTGACACGGAGTCACCTAGTGCAG | 8070 fluorescence intensity (a.u.)
TTTTCTTTTTCAATGTATGATTCTGTTGACTTTTCAGATACGGAGTCACCTAGTGCAG | 11600 fluorescence intensity (a.u.)
CTTCGTCTCTCTCGTCTCGGCTTCGCTACGTTTTTTTTTTCGGAGTCACCTAGTGCAG | 13300 fluorescence intensity (a.u.)
ACCTTCTTACCCACTCCACCCACTGACAACGTTGGCCACCCGGAGTCACCTAGTGCAG | 9360 fluorescence intensity (a.u.)
TGTTTTGGCTTTGGTCCCTTGCTTTTCTTTGGAGGTTGGACGGAGTCACCTAGTGCAG | 10400 fluorescence intensity (a.u.)
CATTCGCTCTAGCCTTCCTCATCGTTGACAGTGCGTGGCACGGAGTCACCTAGTGCAG | 9600 fluorescence intensity (a.u.)
GTCCAAGCCCAATCCACCACCCCGCAGCTCAACCTGGCTCCGGAGTCACCTAGTGCAG | 8040 fluorescence intensity (a.u.)
GTACTCGTGTCTTCATCAGTTATTCCACTCAAAACCGCATCGGAGTCACCTAGTGCAG | 8630 fluorescence intensity (a.u.)
CTTTGTGTTGCTTCTTCTCTTGCAAATTTTTACGTGCATCCGGAGTCACCTAGTGCAG | 8840 fluorescence intensity (a.u.)
CCAACCACCAAATCATCCCACACAAACACCACAAGCTCATCGGAGTCACCTAGTGCAG | 8720 fluorescence intensity (a.u.)
ATTTAGCGTTTATTTTCCGTCAAAATTTTTATATTACGCACGGAGTCACCTAGTGCAG | 10600 fluorescence intensity (a.u.)
CTCATTTGCTCTCCGTCTGCCTGCCATGCGCCACGCCGCCCGGAGTCACCTAGTGCAG | 9250 fluorescence intensity (a.u.)
ATTTCGTGCGGCTTGTCACATCCTGCTTGTTTCATGTACCCGGAGTCACCTAGTGCAG | 9580 fluorescence intensity (a.u.)
ACTTTCTAGCATTGCCTACATTCATATATATATATATATACGGAGTCACCTAGTGCAG | 10900 fluorescence intensity (a.u.)
CGCGGCGTCTACGGTTTCTTTCTCTTTCTCTCTCTTTTTTCGGAGTCACCTAGTGCAG | 10200 fluorescence intensity (a.u.)
TTTGTTGTCTCATTTATTTTTCTACGGGTTATCATCCGAACGGAGTCACCTAGTGCAG | 8220 fluorescence intensity (a.u.)
AGGGTTGTGATTGGTTGGGAAGAGAATGTTGGTAGATAAGCGGAGTCACCTAGTGCAG | 9400 fluorescence intensity (a.u.)
